Drawing on the supplement of paper PMC10849652, this text covers log2 fold change for 40 targets.

By UniProt entry, the sequences of proteins in these tests, tags left out. Where a name states a change or a piece, a line headed by the entry shows the natural chain unless it says otherwise.
UniProt O00148, whole entry, looked up: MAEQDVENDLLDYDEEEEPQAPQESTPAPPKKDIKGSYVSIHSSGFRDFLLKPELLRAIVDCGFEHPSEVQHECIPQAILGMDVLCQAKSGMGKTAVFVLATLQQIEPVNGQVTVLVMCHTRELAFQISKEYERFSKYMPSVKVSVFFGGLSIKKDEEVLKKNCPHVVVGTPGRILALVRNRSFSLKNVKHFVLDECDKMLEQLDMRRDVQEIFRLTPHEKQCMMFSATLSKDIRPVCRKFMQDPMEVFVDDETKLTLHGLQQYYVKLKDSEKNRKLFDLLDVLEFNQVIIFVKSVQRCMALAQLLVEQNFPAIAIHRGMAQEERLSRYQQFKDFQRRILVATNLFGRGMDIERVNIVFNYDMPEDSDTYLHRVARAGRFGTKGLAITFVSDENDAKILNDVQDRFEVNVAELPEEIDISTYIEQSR
UniProt Q96GG9: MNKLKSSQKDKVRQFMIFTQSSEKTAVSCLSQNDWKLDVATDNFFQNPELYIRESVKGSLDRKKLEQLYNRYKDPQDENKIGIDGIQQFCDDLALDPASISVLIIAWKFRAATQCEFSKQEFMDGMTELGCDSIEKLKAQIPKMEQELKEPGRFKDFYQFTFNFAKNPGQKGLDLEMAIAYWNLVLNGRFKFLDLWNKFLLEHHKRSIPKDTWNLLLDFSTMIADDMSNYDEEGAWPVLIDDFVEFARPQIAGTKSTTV
UniProt Q14118: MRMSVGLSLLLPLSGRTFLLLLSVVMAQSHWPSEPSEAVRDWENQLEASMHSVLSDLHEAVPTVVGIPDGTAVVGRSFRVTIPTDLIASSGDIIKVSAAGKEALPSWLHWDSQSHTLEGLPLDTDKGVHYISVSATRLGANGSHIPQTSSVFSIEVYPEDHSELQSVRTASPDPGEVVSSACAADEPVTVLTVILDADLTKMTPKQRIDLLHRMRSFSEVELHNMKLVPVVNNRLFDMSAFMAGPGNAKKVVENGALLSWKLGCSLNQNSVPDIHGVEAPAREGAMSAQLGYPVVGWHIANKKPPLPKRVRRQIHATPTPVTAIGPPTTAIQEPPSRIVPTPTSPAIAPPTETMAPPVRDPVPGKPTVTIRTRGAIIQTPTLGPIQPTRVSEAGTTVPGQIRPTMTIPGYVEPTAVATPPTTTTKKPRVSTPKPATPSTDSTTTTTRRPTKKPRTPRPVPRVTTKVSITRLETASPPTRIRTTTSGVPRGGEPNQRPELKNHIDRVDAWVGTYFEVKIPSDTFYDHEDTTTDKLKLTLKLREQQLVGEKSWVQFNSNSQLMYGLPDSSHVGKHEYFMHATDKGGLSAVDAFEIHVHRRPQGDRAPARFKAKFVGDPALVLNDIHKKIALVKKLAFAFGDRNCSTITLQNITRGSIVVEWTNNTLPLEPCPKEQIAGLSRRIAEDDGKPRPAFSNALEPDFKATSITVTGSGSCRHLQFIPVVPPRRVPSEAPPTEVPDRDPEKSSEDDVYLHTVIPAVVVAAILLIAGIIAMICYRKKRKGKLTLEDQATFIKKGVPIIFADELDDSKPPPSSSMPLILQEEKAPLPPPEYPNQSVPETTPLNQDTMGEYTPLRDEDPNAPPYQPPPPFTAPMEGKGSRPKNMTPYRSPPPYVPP
UniProt Q96EP5: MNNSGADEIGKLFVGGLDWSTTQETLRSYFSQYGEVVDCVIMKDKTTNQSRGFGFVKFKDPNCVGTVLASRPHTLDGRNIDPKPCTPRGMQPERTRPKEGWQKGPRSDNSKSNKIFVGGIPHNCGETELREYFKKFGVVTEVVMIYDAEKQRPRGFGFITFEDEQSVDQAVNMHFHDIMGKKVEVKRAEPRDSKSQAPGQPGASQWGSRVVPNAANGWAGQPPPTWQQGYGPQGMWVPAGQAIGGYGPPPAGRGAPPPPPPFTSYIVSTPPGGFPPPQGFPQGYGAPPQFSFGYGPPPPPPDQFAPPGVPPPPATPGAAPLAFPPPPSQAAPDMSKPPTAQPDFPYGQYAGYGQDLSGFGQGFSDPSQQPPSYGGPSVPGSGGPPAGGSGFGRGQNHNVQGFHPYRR
UniProt P17661, whole entry, looked up: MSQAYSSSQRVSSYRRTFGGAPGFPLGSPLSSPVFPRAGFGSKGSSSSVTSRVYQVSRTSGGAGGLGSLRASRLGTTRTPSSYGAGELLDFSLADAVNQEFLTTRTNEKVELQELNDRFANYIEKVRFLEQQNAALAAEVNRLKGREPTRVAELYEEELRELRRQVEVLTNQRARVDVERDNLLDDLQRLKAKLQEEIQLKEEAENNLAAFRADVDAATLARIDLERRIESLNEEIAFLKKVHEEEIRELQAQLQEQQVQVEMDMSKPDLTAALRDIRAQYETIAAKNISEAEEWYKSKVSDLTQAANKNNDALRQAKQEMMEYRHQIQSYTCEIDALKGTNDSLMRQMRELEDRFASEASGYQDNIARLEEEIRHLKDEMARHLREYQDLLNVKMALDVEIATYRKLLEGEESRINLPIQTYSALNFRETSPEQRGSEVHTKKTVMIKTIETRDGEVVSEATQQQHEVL
UniProt Q9BTE7: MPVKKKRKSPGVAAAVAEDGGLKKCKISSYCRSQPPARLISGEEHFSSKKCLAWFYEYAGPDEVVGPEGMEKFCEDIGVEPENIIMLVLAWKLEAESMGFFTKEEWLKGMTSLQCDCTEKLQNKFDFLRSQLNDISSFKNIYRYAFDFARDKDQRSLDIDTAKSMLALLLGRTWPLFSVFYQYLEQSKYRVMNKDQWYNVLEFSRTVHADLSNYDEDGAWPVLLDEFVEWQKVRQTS
UniProt Q9Y4B6: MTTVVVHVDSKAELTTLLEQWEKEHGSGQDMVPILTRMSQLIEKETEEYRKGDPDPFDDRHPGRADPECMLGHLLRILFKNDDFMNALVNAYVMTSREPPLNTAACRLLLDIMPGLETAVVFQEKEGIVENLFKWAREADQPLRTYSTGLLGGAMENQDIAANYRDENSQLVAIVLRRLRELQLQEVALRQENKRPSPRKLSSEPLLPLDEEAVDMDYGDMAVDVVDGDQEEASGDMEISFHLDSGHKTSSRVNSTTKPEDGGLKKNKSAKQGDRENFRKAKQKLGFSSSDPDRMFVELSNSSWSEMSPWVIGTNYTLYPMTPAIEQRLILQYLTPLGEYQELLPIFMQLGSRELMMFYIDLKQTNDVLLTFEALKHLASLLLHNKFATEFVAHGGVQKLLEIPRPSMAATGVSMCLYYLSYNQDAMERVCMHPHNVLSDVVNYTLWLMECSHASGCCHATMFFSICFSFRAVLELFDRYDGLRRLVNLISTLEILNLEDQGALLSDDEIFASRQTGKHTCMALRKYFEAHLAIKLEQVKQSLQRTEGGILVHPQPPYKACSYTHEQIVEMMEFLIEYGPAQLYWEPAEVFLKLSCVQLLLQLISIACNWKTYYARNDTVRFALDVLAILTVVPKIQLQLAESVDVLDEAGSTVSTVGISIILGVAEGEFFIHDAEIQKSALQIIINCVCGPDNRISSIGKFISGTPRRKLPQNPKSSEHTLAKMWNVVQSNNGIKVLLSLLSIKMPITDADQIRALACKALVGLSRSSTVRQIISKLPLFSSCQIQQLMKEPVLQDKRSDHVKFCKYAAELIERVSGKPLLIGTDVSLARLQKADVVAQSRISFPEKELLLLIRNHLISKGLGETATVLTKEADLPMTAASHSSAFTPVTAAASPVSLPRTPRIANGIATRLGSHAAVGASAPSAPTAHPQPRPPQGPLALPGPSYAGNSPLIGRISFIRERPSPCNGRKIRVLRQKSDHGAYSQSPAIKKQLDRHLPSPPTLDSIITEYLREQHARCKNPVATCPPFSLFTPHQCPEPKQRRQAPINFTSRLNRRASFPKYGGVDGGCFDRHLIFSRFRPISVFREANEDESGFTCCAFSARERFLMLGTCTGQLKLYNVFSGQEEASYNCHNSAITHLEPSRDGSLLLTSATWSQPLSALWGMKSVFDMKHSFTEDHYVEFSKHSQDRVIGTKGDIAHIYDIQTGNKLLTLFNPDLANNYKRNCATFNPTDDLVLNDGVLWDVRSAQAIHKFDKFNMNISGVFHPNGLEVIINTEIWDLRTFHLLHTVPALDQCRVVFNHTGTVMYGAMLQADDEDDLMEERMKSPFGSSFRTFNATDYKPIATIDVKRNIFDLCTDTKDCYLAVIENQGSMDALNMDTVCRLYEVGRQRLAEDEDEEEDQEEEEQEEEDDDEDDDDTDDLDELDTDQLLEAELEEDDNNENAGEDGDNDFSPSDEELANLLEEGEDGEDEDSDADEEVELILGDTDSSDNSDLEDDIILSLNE
UniProt Q16698: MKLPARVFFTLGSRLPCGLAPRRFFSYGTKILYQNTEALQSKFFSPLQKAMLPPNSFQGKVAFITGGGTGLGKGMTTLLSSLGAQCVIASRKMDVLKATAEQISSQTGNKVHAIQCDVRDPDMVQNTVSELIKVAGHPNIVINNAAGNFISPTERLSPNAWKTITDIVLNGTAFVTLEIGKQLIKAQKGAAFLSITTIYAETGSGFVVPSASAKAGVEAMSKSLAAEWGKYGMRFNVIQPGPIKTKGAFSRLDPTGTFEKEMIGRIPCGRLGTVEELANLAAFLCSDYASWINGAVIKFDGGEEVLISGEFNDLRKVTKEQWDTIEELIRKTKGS
UniProt Q9BTE1, whole entry, looked up: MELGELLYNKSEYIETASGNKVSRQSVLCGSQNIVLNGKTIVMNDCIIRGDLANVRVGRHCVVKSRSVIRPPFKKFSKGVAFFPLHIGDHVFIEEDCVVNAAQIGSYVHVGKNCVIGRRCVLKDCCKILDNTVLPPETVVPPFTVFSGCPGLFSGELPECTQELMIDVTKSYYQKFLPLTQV
UniProt Q7L014: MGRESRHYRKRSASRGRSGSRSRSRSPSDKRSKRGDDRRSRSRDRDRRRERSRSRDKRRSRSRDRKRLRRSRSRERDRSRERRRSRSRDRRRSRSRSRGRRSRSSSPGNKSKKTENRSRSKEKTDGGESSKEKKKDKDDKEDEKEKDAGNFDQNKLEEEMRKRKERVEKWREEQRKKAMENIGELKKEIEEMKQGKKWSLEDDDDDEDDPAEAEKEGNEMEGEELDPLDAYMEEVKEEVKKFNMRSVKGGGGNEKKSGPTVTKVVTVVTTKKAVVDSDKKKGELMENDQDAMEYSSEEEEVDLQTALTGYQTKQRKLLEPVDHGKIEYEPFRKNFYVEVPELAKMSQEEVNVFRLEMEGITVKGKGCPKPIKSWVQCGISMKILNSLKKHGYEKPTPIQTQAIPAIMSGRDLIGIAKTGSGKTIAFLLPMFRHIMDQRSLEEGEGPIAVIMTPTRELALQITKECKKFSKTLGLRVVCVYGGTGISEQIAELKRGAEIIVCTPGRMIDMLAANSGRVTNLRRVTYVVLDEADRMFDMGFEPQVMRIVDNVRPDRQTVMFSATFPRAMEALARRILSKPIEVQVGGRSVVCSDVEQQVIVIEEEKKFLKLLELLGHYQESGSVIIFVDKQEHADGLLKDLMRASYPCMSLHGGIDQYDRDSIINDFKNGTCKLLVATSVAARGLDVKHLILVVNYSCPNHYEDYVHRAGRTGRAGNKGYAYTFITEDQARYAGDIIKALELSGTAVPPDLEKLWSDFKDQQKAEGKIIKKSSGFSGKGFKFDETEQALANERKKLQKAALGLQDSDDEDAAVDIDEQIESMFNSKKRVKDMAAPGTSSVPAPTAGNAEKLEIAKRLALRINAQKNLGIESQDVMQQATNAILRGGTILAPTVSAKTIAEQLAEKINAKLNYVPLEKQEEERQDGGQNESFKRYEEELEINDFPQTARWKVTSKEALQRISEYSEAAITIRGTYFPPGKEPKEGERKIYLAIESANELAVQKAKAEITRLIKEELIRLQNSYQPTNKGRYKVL
UniProt Q92841: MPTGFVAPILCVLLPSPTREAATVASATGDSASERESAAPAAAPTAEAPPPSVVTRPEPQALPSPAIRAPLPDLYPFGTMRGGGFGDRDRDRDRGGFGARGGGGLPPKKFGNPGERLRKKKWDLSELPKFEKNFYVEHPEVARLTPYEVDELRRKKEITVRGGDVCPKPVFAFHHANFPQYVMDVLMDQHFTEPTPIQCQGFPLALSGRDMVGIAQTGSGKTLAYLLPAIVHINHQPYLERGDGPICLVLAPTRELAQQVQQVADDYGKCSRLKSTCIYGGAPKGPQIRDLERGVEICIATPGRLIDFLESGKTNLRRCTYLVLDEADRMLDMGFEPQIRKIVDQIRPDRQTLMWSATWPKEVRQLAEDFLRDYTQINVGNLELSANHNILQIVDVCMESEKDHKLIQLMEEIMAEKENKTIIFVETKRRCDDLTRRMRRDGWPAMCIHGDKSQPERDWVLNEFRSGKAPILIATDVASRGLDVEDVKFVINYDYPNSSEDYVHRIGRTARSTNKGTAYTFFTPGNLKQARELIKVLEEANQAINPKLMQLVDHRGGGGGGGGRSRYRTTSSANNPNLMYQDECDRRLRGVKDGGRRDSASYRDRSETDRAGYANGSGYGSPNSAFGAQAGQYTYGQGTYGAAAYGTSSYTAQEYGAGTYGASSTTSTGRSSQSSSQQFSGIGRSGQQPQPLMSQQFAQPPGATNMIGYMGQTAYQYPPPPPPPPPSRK

The other results are listed elsewhere or left out.

Compound in one test: CCCS(=O)(=O)Nc1ccc(F)c(C(=O)c2c[nH]c3ncc(-c4ccc(Cl)cc4)cc23)c1F [vemurafenib]
Nature of the test: log2 fold change, soluble protein after heating vs DMSO (PISA); higher = thermal stabilisation; K562 lysate, 10 uM; active = over 0.2 and 3.5 SD of the protein, either way, in both replicates (recomputed). The method in brief:
(§1)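 Log-two fold change in thermal stability relative to solvent controls is reported from duplicates. For each sample, crude K562 extract from dounce-homogenised pellets in PBS pH 7.4 with 1 mM MgCl2, at 1 mg/mL protein, was treated with 10 μM compound for 30 min. Aliquots heated for 3 min across 48°C-58°C were pooled, brought to 0.5% NP-40 at 4°C and cleared at 21,000xg for 90 min. The supernatant was quantified by TMTpro 16plex LC-MS/MS with channel sums equalised.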
DDX39A (UniProt O00148): the log2 fold change is inactive: 0.021.
With DCTN3 (UniProt O75935), the log2 fold change was inactive: 0.016.
On the same count and under the same terms, with DDX20 (UniProt Q9UHI6) the figure was inactive: -0.058.
Still for that read-out and setting: next, DDX59 (UniProt Q5T1V6): inactive: 0.05.
On the same count and under the same terms, with DEK (UniProt P35659) the figure was inactive: 0.005; with DENND4C (UniProt Q5VZ89), inactive: -0.038.
With DCP2 (UniProt Q8IU60), the log2 fold change is inactive: -0.05.
Consider CYP24A1 (UniProt Q07973), for which the log2 fold change was inactive: 0.065.
Still for that read-out and setting: with DCUN1D1 (UniProt Q96GG9) the figure was inactive: 0.001; with DAG1 (UniProt Q14118), inactive: 0; with DAZAP1 (UniProt Q96EP5), inactive: 0.036.
For DAB2 (UniProt P98082), the log2 fold change was inactive: -0.009.
The same measure, in the same setting: next, DDAH2 (UniProt O95865): inactive: -0.019; DES (UniProt P17661): inactive: 0.084.
Take DDX6 (UniProt P26196): the log2 fold change is inactive: 0.017.
On the same count and under the same terms, with DCAF6 isoform 3 (UniProt Q58WW2) the figure was inactive: -0.049; with DCXR (UniProt Q7Z4W1), inactive: -0.013; with DDX49 (UniProt Q9Y6V7), inactive: 0.036.
Still for that read-out and setting: next, DENND6A (UniProt Q8IWF6): inactive: 0.025; DCUN1D5 (UniProt Q9BTE7): inactive: 0.032.
Same read-out and setting: next, DECR2 (UniProt Q9NUI1): inactive: -0.013.
For DBN1 (UniProt Q16643), the log2 fold change was inactive: 0.001.
The same measure, in the same setting: with DDX55 (UniProt Q8NHQ9) the figure was inactive: 0.01; with DFFA (UniProt O00273), inactive: -0.025; with DCAF1 (UniProt Q9Y4B6), inactive: -0.009.
On to DDX54 isoform 2 (UniProt Q8TDD1), for which the log2 fold change is inactive: -0.041.
As for DECR1 (UniProt Q16698), the log2 fold change is inactive: -0.004.
Turning to DCTN5 (UniProt Q9BTE1), the log2 fold change is inactive: -0.051.
On the same count and under the same terms, with D2HGDH (UniProt Q8N465) the figure was inactive: 0.05; with DERPC (UniProt P0CG12), inactive: 0.044.
The same measure, in the same setting: with DCUN1D4 isoform 3 (UniProt Q92564) the figure was inactive: 0.066; with DCP1A (UniProt Q9NPI6), inactive: 0.023.
As to DDX18 (UniProt Q9NVP1), the log2 fold change is inactive: 0.018.
On to DDX46 (UniProt Q7L014), for which the log2 fold change is inactive: 0.018.
For the target DDX17 (UniProt Q92841), the log2 fold change was inactive: 0.011.
Consider DCAF7 (UniProt P61962), for which the log2 fold change was inactive: 0.014.
Turning to DDX39B isoform 2 (UniProt Q13838), the log2 fold change was inactive: -0.017.
Still for that read-out and setting: next, DDX21 (UniProt Q9NR30): inactive: 0.029.
The same measure, in the same setting: next, DCTD isoform 2 (UniProt P32321): inactive: -0.015; CZIB (UniProt Q9NWV4): inactive: -0.031.

Compound in another test: CCCS(=O)(=O)Nc1ccc(F)c(C(=O)c2c[nH]c3ncc(Cl)cc23)c1F
The test is described as above. The method, boiled down: as §1
In the case of DDX39A (UniProt O00148), the log2 fold change is inactive: 0.021.
Still for that read-out and setting: next, DCTN3 (UniProt O75935): inactive: -0.003.
Same read-out and setting: next, DDX20 (UniProt Q9UHI6): inactive: 0.018.
Still for that read-out and setting: next, DDX59 (UniProt Q5T1V6): inactive: 0.008; DEK (UniProt P35659): inactive: -0.003.
Regarding DENND4C (UniProt Q5VZ89), the log2 fold change was inactive: 0.027.
As for DCP2 (UniProt Q8IU60), the log2 fold change was inactive: -0.038.
On the same count and under the same terms, with CYP24A1 (UniProt Q07973) the figure was inactive: -0.01.
With DCUN1D1 (UniProt Q96GG9), the log2 fold change is inactive: -0.007.
Still for that read-out and setting: next, DAG1 (UniProt Q14118): inactive: 0.012; DAZAP1 (UniProt Q96EP5): inactive: 0.043; DAB2 (UniProt P98082): inactive: 0.025.
On the same count and under the same terms, next, DDAH2 (UniProt O95865): inactive: 0.01; DES (UniProt P17661): inactive: 0.008; DDX6 (UniProt P26196): inactive: 0.008.
For DCAF6 isoform 3 (UniProt Q58WW2), the log2 fold change is inactive: 0.017.
The same measure, in the same setting: next, DCXR (UniProt Q7Z4W1): inactive: -0.003; DDX49 (UniProt Q9Y6V7): inactive: -0.008; DENND6A (UniProt Q8IWF6): inactive: 0.033.
Consider DCUN1D5 (UniProt Q9BTE7), for which the log2 fold change was inactive: 0.012.
The same measure, in the same setting: with DECR2 (UniProt Q9NUI1) the figure was inactive: 0.125; with DBN1 (UniProt Q16643), inactive: 0.001.
With DDX55 (UniProt Q8NHQ9), the log2 fold change is inactive: 0.015.
As to DFFA (UniProt O00273), the log2 fold change was inactive: 0.03.
On to DCAF1 (UniProt Q9Y4B6), for which the log2 fold change was inactive: 0.019.
Same read-out and setting: next, DDX54 isoform 2 (UniProt Q8TDD1): inactive: 0.017; DECR1 (UniProt Q16698): inactive: -0.006.
Same read-out and setting: with DCTN5 (UniProt Q9BTE1) the figure was inactive: -0.015; with D2HGDH (UniProt Q8N465), inactive: 0.012.
The same measure, in the same setting: next, DERPC (UniProt P0CG12): inactive: -0.107; DCUN1D4 isoform 3 (UniProt Q92564): inactive: 0.075; DCP1A (UniProt Q9NPI6): inactive: 0.017.
Take DDX18 (UniProt Q9NVP1): the log2 fold change is inactive: 0.029.
On the same count and under the same terms, with DDX46 (UniProt Q7L014) the figure was inactive: 0.019; with DDX17 (UniProt Q92841), inactive: -0.002; with DCAF7 (UniProt P61962), inactive: 0.034.
Regarding DDX39B isoform 2 (UniProt Q13838), the log2 fold change is inactive: -0.006.
Same read-out and setting: next, DDX21 (UniProt Q9NR30): inactive: 0.006; DCTD isoform 2 (UniProt P32321): inactive: -0.007; CZIB (UniProt Q9NWV4): inactive: -0.018.
